Assay results reported in publication PMC9822988.
No constants are given. Whether binding was seen depends on the method and setting. Some binding calls cover weakened binding; strength is not graded here.

Protein sequences, listed by entry. Tags and fused reporters are not part of them. Lines headed by an entry give the natural chain unless they say otherwise; changes in a name come on top. Residues count along the entry.
UniProt P17927, residues 42-2039: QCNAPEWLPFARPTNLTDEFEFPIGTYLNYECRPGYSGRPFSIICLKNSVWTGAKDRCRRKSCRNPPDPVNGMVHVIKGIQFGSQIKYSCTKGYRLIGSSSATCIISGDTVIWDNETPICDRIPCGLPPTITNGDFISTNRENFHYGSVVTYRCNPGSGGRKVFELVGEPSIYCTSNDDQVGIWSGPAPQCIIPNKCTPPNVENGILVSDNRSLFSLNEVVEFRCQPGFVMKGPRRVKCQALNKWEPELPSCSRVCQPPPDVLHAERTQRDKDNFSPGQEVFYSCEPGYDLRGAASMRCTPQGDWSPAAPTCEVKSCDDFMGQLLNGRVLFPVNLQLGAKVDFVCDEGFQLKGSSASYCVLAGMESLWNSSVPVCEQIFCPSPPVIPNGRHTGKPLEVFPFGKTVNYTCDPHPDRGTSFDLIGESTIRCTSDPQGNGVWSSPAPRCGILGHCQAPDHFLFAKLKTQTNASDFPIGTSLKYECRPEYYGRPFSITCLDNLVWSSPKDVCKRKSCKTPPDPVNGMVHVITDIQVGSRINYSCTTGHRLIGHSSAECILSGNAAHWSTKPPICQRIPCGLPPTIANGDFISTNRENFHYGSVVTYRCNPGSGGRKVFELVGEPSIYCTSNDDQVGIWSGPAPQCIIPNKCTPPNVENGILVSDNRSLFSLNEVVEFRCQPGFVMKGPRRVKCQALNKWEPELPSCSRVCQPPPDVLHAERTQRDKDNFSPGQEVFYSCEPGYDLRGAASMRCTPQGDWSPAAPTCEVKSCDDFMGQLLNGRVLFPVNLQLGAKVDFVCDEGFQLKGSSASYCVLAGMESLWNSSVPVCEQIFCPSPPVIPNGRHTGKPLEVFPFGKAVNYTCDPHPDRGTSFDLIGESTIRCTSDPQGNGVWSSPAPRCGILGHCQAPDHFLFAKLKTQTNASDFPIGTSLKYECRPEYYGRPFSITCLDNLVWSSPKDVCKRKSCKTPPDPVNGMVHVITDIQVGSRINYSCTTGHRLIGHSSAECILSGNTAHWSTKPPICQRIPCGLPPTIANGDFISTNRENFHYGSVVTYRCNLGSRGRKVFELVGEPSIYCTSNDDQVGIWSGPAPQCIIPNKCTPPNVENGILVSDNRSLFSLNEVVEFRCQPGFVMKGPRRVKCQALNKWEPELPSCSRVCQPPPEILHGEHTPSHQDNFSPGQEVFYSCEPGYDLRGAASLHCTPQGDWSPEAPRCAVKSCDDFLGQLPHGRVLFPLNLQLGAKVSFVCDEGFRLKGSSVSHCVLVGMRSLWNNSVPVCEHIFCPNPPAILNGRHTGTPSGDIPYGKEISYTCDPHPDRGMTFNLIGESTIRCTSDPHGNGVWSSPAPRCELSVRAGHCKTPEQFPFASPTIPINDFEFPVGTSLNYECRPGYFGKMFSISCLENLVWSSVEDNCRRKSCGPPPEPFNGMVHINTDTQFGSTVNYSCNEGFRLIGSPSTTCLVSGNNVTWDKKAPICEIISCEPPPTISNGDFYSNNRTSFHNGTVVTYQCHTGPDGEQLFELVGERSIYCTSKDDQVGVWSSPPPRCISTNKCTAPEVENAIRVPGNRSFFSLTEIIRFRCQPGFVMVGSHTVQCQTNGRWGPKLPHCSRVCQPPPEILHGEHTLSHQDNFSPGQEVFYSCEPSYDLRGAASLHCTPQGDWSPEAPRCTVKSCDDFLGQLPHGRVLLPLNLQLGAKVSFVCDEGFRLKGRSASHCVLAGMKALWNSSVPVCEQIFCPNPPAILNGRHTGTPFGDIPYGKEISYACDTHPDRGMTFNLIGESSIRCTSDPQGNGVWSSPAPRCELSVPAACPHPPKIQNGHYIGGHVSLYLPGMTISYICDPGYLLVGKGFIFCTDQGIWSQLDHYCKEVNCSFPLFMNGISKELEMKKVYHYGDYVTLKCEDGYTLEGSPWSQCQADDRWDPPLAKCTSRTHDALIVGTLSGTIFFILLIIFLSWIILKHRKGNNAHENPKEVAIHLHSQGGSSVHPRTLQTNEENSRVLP
UniProt P01024: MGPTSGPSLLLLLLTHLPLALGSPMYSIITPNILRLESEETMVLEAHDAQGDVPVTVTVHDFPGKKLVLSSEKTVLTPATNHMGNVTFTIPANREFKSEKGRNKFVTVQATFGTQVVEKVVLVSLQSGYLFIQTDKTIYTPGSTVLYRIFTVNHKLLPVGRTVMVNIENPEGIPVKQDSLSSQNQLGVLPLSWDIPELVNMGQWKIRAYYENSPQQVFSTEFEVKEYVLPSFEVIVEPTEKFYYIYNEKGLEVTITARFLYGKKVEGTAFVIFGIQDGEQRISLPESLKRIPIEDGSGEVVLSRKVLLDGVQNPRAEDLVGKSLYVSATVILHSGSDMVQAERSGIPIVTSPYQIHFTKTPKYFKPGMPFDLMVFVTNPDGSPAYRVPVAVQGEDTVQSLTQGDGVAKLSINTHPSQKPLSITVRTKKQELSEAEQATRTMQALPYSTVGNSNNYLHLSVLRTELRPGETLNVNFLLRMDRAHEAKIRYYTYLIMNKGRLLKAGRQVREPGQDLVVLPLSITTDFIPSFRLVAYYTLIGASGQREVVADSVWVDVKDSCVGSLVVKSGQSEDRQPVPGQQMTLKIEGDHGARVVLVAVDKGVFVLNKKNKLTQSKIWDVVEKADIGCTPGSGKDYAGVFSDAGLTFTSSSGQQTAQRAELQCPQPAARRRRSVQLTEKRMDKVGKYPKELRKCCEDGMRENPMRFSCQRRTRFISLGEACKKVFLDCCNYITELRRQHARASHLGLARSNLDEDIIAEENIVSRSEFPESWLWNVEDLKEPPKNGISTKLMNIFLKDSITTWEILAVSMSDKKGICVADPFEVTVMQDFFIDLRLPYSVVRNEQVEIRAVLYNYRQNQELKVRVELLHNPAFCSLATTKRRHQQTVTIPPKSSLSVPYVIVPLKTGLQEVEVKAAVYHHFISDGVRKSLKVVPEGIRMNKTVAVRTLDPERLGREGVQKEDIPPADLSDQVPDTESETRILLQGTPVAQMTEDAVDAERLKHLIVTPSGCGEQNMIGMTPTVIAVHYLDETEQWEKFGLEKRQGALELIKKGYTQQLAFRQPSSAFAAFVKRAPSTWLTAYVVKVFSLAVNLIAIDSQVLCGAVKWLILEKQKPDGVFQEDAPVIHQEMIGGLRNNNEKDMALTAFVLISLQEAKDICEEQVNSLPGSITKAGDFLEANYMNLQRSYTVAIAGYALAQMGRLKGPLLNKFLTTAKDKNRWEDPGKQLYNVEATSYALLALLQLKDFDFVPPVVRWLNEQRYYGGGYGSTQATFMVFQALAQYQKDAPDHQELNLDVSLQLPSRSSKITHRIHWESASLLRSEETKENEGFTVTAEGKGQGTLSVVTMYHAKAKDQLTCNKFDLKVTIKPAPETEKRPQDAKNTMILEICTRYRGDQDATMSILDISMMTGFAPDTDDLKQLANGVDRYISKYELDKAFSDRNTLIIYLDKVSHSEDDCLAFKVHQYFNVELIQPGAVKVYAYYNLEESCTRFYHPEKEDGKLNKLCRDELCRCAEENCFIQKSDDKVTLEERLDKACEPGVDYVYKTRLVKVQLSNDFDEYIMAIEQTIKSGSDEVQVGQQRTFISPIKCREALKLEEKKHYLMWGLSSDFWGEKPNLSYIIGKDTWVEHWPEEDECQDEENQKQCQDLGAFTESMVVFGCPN

Molecular target: Complement receptor 1 (human (endogenous in neutrophils)) (UniProt P17927)
Assay: flow cytometry on cells; FITC-labelled 2.8-µm streptavidin beads loaded with C3b-PEG11-biotin, mixed 10:1 with human neutrophils, 15 min at 37 °C on a shaking platform, then fixed; neutrophils with or without pre-incubation with 25 µg/mL anti-CR1 (3D9) or anti-CR3 (ICRF44) blocking antibodies; only the binder purified

For “C3b-PEG11-biotin (from UniProt P01024 23-667; P01024 749-1663)”, the binding was “binds”.
